This is an account of results in patent publication US11771738B2 (Zoetis Services LLC, priority 2018, dated 2023).

The data set is described as follows: general procedure: solution-phase peptide synthesis; HATU/diisopropylethylamine (fragment couplings); propylphosphonic anhydride/diis.

In turn, “(3S,6R,9S,12R,15S,18R,21S,24R)-6,18-bis(4-(1-fluoro-1-(5-methoxypyrazin-2-yl)ethyl)benzyl)-3,9,15,21-tetraisobutyl-4,10,12,16,22,24-hexamethyl-1,7,13,19-tetraoxa-4,10,16,22-tetraazacyclotetracosan-2,5,8,11,14,17,20,23-octaone” returned a step yield (late stage modification step) of 3%.

Take “(3S,6R,9S,12R,15S,18R,21S,24R)-6,18-bis[[4-[[2-(difluoromethyl)-3-pyridyl]methyl]phenyl]methyl]-3,9,15,21-tetraisobutyl-4,10,12,16,22,24-hexamethyl-1,7,13,19-tetraoxa-4,10,16,22-tetrazacyclotetracosane-2,5,8,11,14,17,20,23-octaone”: the step yield (late stage modification step) is recorded as 62%. As to “(R)-1-(benzyloxy)-1-oxopropan-2-yl N—((R)-2-((N-(tert-butoxycarbonyl)-N-methyl-L-leucyl)oxy)-3-(4-((methoxycarbonyl)amino)phenyl)propanoyl)-N-methyl-L-leucinate”, the step yield (coupling step) is on record as 83%. In turn, “dimethyl ((((2S,5R,8S,11R,14S,17R,20S,23R)-5,11,17,23-tetraisobutyl-4,8,10,16,20,22-hexamethyl-3,6,9,12,15,18,21,24-octaoxo-1,7,13,19-tetraoxa-4,10,16,22-tetraazacyclotetracosane-2,14-diyl)bis(methylene))bis(4,1-phenylene))dicarbamate” returned a cyclisation yield (cyclisation step) of 77% yield. As to Bis-Iodo PF1022a, the step yield (late stage modification step) was found to be 62%. Same read-out and setting: in the case of “(3S,6R,9S,12R,15S,18R,21S,24R)-3,9,15,21-tetraisobutyl-6,18-bis(4-(1-(6-methoxypyridin-3-yl)ethyl)benzyl)-4,10,12,16,22,24-hexamethyl-1,7,13,19-tetraoxa-4,10,16,22-tetraazacyclotetracosan-2,5,8,11,14,17,20,23-octaone” it was 52%. On to Bis-CH2OH PF1022a, for which the step yield (late stage modification step, 2 steps from Bis-Iodo PF1022a) came to 91% yield for 2 steps.
